Paper PMC4514670
No constants are given. Whether binding was seen depends on the method and setting. In cells and extracts the contact can be indirect. Some results given as binding are weak or reduced against the parent protein; the word gives no strength. For part of these data: Where a sequence is shown, tags or fusion partners need not be part of it.

Amino acid sequences for entries named in this document (tags omitted). A change or cut given only in a name is not applied to a line headed by its entry.
UniProt Q9WUF3: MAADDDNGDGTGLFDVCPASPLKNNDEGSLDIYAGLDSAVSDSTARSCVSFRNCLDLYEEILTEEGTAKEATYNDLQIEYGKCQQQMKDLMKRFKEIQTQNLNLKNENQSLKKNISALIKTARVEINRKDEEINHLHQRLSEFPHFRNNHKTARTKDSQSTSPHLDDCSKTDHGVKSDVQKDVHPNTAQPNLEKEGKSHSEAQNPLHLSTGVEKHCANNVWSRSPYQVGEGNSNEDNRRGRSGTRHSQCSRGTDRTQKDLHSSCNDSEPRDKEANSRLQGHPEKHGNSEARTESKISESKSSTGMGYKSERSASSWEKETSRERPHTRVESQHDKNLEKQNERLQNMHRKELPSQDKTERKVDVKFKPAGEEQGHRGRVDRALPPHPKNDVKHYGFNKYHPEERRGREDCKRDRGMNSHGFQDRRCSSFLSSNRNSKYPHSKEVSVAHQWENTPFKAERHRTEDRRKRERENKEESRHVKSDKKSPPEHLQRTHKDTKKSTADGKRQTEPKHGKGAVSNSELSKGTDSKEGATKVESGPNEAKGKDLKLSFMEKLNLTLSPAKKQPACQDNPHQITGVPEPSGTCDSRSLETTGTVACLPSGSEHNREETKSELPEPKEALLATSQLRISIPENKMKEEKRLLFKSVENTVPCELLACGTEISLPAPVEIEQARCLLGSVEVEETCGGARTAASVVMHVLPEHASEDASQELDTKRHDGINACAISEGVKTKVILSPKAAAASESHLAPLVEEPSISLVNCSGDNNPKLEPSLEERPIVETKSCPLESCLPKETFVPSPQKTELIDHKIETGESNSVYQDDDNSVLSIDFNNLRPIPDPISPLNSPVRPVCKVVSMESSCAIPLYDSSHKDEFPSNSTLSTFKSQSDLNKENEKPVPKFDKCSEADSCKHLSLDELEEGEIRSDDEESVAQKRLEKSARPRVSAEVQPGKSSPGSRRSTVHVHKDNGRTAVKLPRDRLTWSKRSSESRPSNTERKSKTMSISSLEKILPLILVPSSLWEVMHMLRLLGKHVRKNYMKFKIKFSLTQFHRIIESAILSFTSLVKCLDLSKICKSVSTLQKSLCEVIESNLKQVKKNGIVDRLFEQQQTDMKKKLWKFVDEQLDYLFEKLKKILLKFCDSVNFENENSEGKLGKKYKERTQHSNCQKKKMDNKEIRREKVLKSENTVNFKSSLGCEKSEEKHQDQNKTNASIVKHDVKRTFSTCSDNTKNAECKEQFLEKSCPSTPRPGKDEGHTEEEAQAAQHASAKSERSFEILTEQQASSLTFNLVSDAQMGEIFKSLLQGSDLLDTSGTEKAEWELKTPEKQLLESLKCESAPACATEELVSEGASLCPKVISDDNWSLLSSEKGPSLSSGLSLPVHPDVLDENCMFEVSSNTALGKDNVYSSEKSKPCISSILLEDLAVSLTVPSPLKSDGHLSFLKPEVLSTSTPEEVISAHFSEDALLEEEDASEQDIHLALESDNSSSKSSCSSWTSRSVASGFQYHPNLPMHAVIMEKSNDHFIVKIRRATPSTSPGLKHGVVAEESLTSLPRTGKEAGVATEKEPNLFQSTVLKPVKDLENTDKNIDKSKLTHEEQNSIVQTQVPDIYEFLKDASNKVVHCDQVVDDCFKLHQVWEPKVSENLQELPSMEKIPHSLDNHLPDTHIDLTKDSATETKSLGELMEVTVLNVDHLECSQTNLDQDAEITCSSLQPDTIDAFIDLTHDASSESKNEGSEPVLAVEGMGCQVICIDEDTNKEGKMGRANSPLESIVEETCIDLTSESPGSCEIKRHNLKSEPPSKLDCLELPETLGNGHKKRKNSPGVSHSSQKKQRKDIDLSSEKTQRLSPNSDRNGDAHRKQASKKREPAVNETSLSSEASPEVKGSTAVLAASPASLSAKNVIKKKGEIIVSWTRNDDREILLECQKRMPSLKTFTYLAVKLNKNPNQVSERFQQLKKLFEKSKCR
UniProt P15806: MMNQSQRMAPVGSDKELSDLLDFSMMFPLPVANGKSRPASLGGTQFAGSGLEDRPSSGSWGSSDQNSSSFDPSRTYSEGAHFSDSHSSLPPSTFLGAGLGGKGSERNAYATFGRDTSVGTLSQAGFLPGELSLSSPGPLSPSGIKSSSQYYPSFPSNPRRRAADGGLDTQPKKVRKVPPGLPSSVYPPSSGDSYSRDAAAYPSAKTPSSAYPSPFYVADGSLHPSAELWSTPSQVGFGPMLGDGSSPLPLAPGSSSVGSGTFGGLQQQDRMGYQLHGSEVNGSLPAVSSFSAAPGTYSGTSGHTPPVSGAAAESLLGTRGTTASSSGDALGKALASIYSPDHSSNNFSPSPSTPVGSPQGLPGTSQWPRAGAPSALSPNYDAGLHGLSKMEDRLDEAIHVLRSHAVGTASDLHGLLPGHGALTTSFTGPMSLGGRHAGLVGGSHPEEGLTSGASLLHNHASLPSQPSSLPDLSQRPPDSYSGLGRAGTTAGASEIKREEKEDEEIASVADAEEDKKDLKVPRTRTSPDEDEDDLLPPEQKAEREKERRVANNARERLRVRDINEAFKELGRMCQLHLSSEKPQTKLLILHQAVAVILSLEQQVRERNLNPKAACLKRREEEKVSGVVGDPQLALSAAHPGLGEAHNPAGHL

Columns and labels:
[1] = target: Flag-FLASH (full-length mouse FLASH) (mouse) (UniProt Q9WUF3); assay: co-IP; Flag-FLASH (full length) co-expressed with Myc-tagged E12 or E47 constructs; co-transfected MC lysate by the legend (the methods name CHO-K1 cells); anti-FLAG monoclonal antibody, immunoblot
[2] = target: T1, HA-tagged Id3 (UniProt P41133); assay: co-IP; CHO-K1 cells co-transfected with Myc-tagged E12-bHLH and HA-tagged Id3 or ΔFLASH; lysate immunoprecipitated with anti-HA antibody, blotted with anti-Myc antibody; 50 mmol/L Tris-HCl pH 7.4, 150 mM NaCl, 1% NP-40, 0.5% deoxycholate
T1 sequence: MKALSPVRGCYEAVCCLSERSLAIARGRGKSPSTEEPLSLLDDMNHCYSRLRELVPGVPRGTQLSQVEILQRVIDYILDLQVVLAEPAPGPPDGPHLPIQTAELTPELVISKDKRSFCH

Myc-tagged E12-bHLH (from UniProt P15806 505-651) (domain or fragment)
binding [1]: binds | binding [2]: binds

Myc-tagged full-length mouse E12 (from UniProt P15806 1-651)
binding [1]: binds
